Measurements as given in publication PMC10517016, “SCARB2 drives hepatocellular carcinoma tumor initiating cells via enhanced MYC transcriptional activity” (Nature Communications, 2023).
Results are given in words; binding and its absence hold for the method and conditions named. In cells and extracts the contact can be indirect. Some binding calls cover weakened binding; strength is not graded here. For some assays here: Tags and fused reporters may be left off the sequences shown. Blank lines part the entries; values can stand above or below the molecule they belong to.

Amino acid sequences for entries named in this document (tags omitted). A change or cut given only in a name is not applied to a line headed by its entry.
UniProt P01106: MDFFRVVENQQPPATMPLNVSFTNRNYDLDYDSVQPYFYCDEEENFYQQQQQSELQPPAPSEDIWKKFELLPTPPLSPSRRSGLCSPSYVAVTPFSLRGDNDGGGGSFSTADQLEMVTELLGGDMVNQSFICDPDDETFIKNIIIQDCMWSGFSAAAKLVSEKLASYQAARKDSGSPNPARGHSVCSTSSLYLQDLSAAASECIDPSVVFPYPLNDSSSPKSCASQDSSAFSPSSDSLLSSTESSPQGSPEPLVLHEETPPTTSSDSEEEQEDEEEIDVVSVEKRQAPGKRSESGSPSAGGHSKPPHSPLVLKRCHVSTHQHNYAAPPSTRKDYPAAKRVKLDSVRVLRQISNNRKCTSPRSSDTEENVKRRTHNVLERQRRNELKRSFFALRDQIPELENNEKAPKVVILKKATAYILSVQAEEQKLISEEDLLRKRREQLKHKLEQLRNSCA
UniProt O15379: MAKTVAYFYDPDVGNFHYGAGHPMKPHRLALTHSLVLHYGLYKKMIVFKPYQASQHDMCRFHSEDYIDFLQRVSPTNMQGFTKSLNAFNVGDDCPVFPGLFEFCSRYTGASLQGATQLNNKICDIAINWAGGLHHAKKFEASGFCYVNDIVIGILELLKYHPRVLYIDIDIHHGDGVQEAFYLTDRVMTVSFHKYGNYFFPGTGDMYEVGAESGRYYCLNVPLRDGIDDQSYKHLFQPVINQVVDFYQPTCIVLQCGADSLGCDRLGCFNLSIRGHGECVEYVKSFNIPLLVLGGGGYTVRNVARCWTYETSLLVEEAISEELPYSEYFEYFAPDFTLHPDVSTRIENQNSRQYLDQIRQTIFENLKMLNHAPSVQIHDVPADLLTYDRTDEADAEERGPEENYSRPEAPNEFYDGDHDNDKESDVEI
UniProt Q92993: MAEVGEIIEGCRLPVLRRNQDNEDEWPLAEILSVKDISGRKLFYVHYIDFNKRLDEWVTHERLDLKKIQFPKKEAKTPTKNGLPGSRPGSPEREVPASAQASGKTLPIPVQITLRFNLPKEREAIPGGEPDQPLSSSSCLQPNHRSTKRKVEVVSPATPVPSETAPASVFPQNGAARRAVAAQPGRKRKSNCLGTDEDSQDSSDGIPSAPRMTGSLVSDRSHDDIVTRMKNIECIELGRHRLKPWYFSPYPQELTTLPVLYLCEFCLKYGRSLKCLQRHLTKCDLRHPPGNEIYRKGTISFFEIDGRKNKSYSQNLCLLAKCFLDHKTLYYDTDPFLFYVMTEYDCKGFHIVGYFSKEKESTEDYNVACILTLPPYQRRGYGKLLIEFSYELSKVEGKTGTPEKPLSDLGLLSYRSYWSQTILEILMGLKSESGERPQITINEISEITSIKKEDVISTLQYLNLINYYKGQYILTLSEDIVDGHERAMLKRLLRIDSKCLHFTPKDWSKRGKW
UniProt Q92830: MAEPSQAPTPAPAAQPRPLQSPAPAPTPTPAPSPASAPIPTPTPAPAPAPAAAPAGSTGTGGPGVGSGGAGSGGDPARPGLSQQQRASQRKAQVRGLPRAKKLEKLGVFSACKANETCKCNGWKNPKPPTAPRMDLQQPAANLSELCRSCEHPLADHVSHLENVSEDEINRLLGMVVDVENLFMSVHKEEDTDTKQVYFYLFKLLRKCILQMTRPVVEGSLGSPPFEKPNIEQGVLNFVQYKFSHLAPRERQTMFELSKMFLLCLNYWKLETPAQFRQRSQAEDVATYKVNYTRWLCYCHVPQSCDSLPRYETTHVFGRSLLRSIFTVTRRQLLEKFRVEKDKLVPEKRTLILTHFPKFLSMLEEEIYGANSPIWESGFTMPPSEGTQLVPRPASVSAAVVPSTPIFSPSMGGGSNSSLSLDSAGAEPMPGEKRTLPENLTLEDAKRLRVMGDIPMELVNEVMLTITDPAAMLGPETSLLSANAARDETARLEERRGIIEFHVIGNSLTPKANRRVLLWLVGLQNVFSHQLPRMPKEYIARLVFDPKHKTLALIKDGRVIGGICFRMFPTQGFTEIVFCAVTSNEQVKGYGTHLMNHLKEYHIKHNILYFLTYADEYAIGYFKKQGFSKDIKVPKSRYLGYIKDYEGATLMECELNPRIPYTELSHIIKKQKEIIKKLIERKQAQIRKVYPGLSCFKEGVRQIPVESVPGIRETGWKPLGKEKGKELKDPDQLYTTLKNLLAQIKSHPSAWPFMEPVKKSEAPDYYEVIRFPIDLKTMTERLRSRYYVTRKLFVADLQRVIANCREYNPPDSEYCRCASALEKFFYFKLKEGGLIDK

Assays:
[1] = biological target: MYC (endogenous, wild type) (human (endogenous in HCCLM3)) (UniProt P01106); assay: co-IP; endogenous co-IP in MYC^WT and MYC^K148R HCCLM3 cells; precipitating antibody not told
HDAC3-HA-tag (human) = HDAC3-HA-tag (human) (UniProt O15379); assay: co-IP; HEK 293T cells cotransfected with MYC constructs (GFP tag) and SCARB2 (Myc tag) or HDAC3 (HA tag); extracts IP with anti-Myc or anti-HA antibody
SCARB2-Myc-tag (human) = biological target: T1, SCARB2-Myc-tag (human) (UniProt Q14108); assay: as above
T1 sequence: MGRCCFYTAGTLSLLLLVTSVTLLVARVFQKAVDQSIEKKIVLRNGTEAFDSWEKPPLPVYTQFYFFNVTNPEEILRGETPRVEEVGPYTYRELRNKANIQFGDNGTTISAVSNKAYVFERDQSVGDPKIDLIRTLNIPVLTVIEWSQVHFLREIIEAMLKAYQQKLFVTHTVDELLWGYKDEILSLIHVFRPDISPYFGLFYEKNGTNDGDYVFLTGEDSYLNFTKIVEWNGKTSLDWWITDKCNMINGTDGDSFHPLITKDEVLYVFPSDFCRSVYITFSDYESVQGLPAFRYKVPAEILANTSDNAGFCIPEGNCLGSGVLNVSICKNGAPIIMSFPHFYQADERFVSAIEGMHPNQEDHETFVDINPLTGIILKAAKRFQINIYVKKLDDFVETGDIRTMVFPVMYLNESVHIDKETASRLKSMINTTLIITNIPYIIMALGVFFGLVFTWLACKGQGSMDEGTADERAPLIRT

[2] = biological target: T2, Scavenger receptor class B member 2 (SCARB2), endogenous (human (endogenous in HCCLM3)) (UniProt Q14108); assay: co-IP; endogenous proteins; cytomembrane fraction of HCCLM3 cells
T2 sequence: T1 sequence

[3] = biological target: T2, Scavenger receptor class B member 2 (SCARB2), endogenous (human (endogenous in HCCLM3)); assay: co-IP; endogenous proteins; cytoplasm and nucleus fractions of HCCLM3 cells
[4] = biological target: HDAC3 (endogenous) (human (endogenous in HCCLM3)) (UniProt O15379); assay: co-IP; endogenous proteins in whole extracts of HCCLM3 cells; antibody overnight at 4 °C, then Protein A/G agarose; cells with or without SCARB2 knockout or overexpression, DMSO or PMB (IP with anti-SCARB2 antibody in the PMB panel)
[5] = biological target: T2, Scavenger receptor class B member 2 (SCARB2), endogenous (human (endogenous in HCCLM3)); assay: as above
MYC-Flag-tag (human) = MYC-Flag-tag (human) (UniProt P01106); assay: co-IP; HEK 293T cells cotransfected with SCARB2 constructs (Myc-tagged) and MYC (Flag-tagged); extracts IP with anti-Flag

- binding (HDAC3-HA-tag (human)): binds
- binding (SCARB2-Myc-tag (human)): binds
Molecule: MYC-N (amino acids 1-144), GFP tag (from UniProt P01106 1-144) (domain or fragment)

- binding (HDAC3-HA-tag (human)): binds
- binding (SCARB2-Myc-tag (human)): binds
Molecule: MYC central region (amino acids 144-360), GFP tag (from UniProt P01106 144-360) (domain or fragment)

Second part, the molecule before the results:

Molecule: KAT5 (endogenous) (from UniProt Q92993 1-513)
- binding [1]: binds

Molecule: MYC (endogenous, wild type) (from UniProt P01106-2 1-454)
- binding [2]: no binding (condition: in the cytomembrane fraction)
- binding [3]: binds
- binding [4]: binds
- binding [5]: binds

Molecule: GCN5 (endogenous) (from UniProt Q92830 1-837)
- binding [1]: binds

B1: SCARB2-Myc-tag (protein, UniProt Q14108 1-478)
chain: T1 sequence
- binding (MYC-Flag-tag (human)): binds
